Results are given in words; binding and its absence hold for the method and conditions named. Binding seen in cells or lysates may run through a third protein. Some results given as binding are weak or reduced against the parent protein; the word gives no strength.
Legend:
GST-p21S130A (human) = GST-p21S130A (human) (UniProt P38936); assay: pull-down; GST fusion proteins and Glutathione Sepharose beads incubated with cell extracts of nocodazole synchronized HCT116 p21−/− cells; binding buffer with 10% glycerol and 0.1% NP-40 in PBS; blots for Cdk1 and cyclin B1; only the target purified
[1] = molecular target: FLAG-p21S130A (in HeLa cells) (human) (UniProt P38936); assay: co-IP; extracts of transfected, nocodazole synchronized HeLa cells, immunoprecipitated with FLAG M2 beads; precipitate used for an ex vivo kinase assay with 32P-ATP without added kinase; cyclin B1 indicated in the autoradiogram
[2] = molecular target: wild type FLAG-p21 (in HeLa cells) (human) (UniProt P38936); assay: as above
[3] = molecular target: Cdk1/cyclin B1 (endogenous, mitotic HCT116 p21−/− cells) (human (endogenous in HCT116)) (UniProt P06493+P14635); assay: co-IP; nuclear extracts of transfected, nocodazole synchronized HCT116 p21−/− cells, immunoprecipitated with cyclin B1 antibody; expression levels of FLAG-p21 and mutants adjusted to be comparable

By UniProt entry, the sequences of proteins in these tests, tags left out. Where a name states a change or a piece, a line headed by the entry shows the natural chain unless it says otherwise.
UniProt P38936: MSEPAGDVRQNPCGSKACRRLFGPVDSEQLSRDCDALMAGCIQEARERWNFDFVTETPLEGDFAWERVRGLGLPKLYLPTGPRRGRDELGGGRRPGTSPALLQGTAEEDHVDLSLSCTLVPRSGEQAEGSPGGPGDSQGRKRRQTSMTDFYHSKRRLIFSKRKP
UniProt P06493: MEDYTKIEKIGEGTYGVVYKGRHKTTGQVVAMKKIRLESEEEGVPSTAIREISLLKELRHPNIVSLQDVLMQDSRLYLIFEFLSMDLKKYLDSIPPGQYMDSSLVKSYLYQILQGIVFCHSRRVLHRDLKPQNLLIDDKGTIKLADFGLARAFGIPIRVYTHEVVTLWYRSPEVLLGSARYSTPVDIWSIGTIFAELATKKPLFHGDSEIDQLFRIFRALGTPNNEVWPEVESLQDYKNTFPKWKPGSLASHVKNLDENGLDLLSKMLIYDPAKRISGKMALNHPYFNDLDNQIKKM
UniProt P14635: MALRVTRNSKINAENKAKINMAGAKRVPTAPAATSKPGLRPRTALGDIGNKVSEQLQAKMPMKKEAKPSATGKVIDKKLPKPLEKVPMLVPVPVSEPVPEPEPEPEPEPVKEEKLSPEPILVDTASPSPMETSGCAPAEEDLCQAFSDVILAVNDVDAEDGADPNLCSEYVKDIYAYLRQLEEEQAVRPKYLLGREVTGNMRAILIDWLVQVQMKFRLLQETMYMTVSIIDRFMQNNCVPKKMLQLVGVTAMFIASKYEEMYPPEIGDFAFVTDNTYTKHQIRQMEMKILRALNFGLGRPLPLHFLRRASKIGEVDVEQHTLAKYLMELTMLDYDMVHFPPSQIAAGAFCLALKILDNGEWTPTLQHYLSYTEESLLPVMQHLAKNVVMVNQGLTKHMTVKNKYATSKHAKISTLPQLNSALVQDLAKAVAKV

Substance: Cdk1/cyclin B1 (endogenous, mitotic HCT116 p21−/− cells) (from UniProt P06493 1-297; P14635 1-433) (complex)
- binding (GST-p21S130A (human)): binds

Substance: Cdk1/cyclin B1 (endogenous, mitotic HeLa cells) (from UniProt P06493 1-297; P14635 1-433) (complex)
- binding [1]: binds
- binding [2]: binds

Substance: FLAG-p21S130A (in HCT116 p21−/− cells) (from UniProt P38936 1-164)
- binding [3]: binds

Substance: FLAG-p21S130D (in HCT116 p21−/− cells) (from UniProt P38936 1-164)
- binding [3]: binds

Substance: wild type FLAG-p21 (in HCT116 p21−/− cells) (from UniProt P38936 1-164)
- binding [3]: binds

— PMC5226578
